Experiment [1] has as its system ReNCell VM. In words: neuronal differentiation score (DCX+ cell fraction vs untreated, manual image score) (score (-3 to 3)); higher = more neuronal differentiation. The settings on record: 2 uM, 2 weeks.
Experiment [2] deals with ReNCell VM. Put plainly: dopaminergic neuron differentiation score (TH+ cell fraction vs untreated, manual image score) (score (0 to 3)); higher = more TH+ dopaminergic neuron differentiation. To be noted: 2 uM, 4 weeks, BDNF 10 ng/ml + GDNF 10 ng/ml.

Where a name gives a salt, the structure may show the parent alone. The list shows a part of the results. Repeats in this data set agree poorly, so a single value says little.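 Human fetal ventral-midbrain neural progenitor line ReNCell VM, differentiated without mitogens. Images stained for doublecortin (early neurons) or tyrosine hydroxylase (dopaminergic neurons) were scored by blinded raters against untreated wells (0 = no change). Repeats and both raters were averaged, and compounds averaging 2 or higher were picked as hits for retesting.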

`CCOC(=O)COc1ccc2c(=O)cc(-c3ccccc3)oc2c1`: the neuronal differentiation score in the experiment on ReNCell VM [1] (library: Spectrum) is inactive: 0. Further, in the experiment on ReNCell VM [2] (library: Spectrum), the “dopaminergic neuron differentiation score” value was inactive: 1.

On to `Cc1cc(-c2ccccc2)nnc1NCCN1CCOCC1` [Minaprine dihydrochloride], for which, in the experiment with ReNCell VM [1] (library: Prestwick), the neuronal differentiation score is inactive: 0. Besides, the “dopaminergic neuron differentiation score” value in the experiment on ReNCell VM [2] (library: Prestwick) was inactive: 0.

Turning to `CC(=O)NO`, in the experiment with ReNCell VM [1] (library: Spectrum), the neuronal differentiation score was inactive: 0. Moreover, the “dopaminergic neuron differentiation score” value in the experiment on ReNCell VM [2] (library: Spectrum) was inactive: 0.

In the case of `CCC1=C[C@@H]2CN(C1)Cc1c([nH]c3ccccc13)[C@@](C(=O)OC)(c1cc3c(cc1OC)N(C)[C@H]1[C@@](O)(C(=O)OC)[C@H](OC(C)=O)[C@]4(CC)C=CCN5CC[C@]31[C@@H]54)C2`, the neuronal differentiation score in the experiment on ReNCell VM [1] (library: Spectrum) is inactive: 0. Also, in the experiment on ReNCell VM [2] (library: Spectrum), the “dopaminergic neuron differentiation score” value is inactive: 0.

As to `CC1(C)C(=O)[C@H]2C[C@]3(O)C4=CC(=O)O[C@@H](c5ccoc5)[C@@]4(C)CCC3[C@](C)(C2=O)[C@H]1CC(=O)O` (some centres not stated), the neuronal differentiation score in the experiment on ReNCell VM [1] (library: Spectrum) was inactive: 0. Besides, the “dopaminergic neuron differentiation score” value with ReNCell VM [2] (library: Spectrum) was inactive: 0.

With `N[C@@H](COP(=O)(O)O)C(=O)O`, the neuronal differentiation score with ReNCell VM [1] (library: Spectrum) was inactive: 0. Further, in the experiment on ReNCell VM [2] (library: Spectrum), the “dopaminergic neuron differentiation score” value is inactive: 0.

For the compound `NC(C(=O)O)C(O)C(=O)O` (stereo not drawn) [d,l-threo-3-HYDROXYASPARTIC ACID], in the experiment on ReNCell VM [1] (library: Spectrum), the neuronal differentiation score is inactive: 0. For the same compound, the “dopaminergic neuron differentiation score” value with ReNCell VM [2] (library: Spectrum) is inactive: 0.

On to `NC(=O)N1c2ccccc2CC(=O)c2ccccc21` [Oxcarbazepine], for which, in the experiment on ReNCell VM [1] (library: Prestwick), the neuronal differentiation score is inactive: 0. Besides, the “dopaminergic neuron differentiation score” value in the experiment on ReNCell VM [2] (library: Prestwick) was inactive: 0.

Take `CCn1cc(C(=O)O)c(=O)c2cc(F)c(N3CCNCC3)cc21` [Norfloxacin]: in the experiment with ReNCell VM [1] (library: Prestwick), the neuronal differentiation score was inactive: 0. Also, the “dopaminergic neuron differentiation score” value in the experiment with ReNCell VM [2] (library: Prestwick) is inactive: 0.

Take `CCCCC1C(=O)N(c2ccccc2)N(c2ccccc2)C1=O`: the neuronal differentiation score with ReNCell VM [1] (library: Spectrum) was inactive: 0. The “dopaminergic neuron differentiation score” value with ReNCell VM [2] (library: Spectrum) was inactive: 0.

On to `COc1cnc(NS(=O)(=O)c2ccc(N)cc2)nc1`, for which the neuronal differentiation score in the experiment with ReNCell VM [1] (library: Spectrum) was inactive: 0. In the experiment with ReNCell VM [2] (library: Spectrum), the “dopaminergic neuron differentiation score” value is inactive: 0.

For the compound `C[C@@]1(O)CCOC(=O)C1`, in the experiment with ReNCell VM [1] (library: Spectrum), the neuronal differentiation score is inactive: 0. In addition, the “dopaminergic neuron differentiation score” value in the experiment on ReNCell VM [2] (library: Spectrum) is inactive: 0.

As to `C=C1C[C@H]2[C@@H]3C=C(C)C4=CC(=O)CC[C@]4(C)[C@H]3CC[C@]2(C)[C@@]1(OC(C)=O)C(C)=O` [Melengestrol acetate], the neuronal differentiation score with ReNCell VM [1] (library: Prestwick) was inactive: 0. Besides, the “dopaminergic neuron differentiation score” value with ReNCell VM [2] (library: Prestwick) was inactive: 0.

Turning to `N=C(N)N/N=C/c1c(Cl)cccc1Cl`, the neuronal differentiation score with ReNCell VM [1] (library: Spectrum) was inactive: 0. Further, the “dopaminergic neuron differentiation score” value in the experiment with ReNCell VM [2] (library: Spectrum) was inactive: 0.

With `CN(C)c1nc(N(C)C)nc(N(C)C)n1`, in the experiment with ReNCell VM [1] (library: Spectrum), the neuronal differentiation score was inactive: -1. In addition, the “dopaminergic neuron differentiation score” value in the experiment on ReNCell VM [2] (library: Spectrum) was inactive: 0.

As to `O=C1NCCN1c1ncc([N+](=O)[O-])s1` [Niridazole], the neuronal differentiation score with ReNCell VM [1] (library: Prestwick) was inactive: 0. Also, in the experiment on ReNCell VM [2] (library: Prestwick), the “dopaminergic neuron differentiation score” value is inactive: 0.

Consider `O=C1C=CC(=O)c2c1ccc1c2ccc2ccccc21` [Chrysene-1,4-quinone], for which the neuronal differentiation score in the experiment with ReNCell VM [1] (library: Prestwick) is inactive: 0. Also, the “dopaminergic neuron differentiation score” value in the experiment with ReNCell VM [2] (library: Prestwick) was inactive: 0.

With `CC(C)(C)NC[C@H](O)COc1nsnc1N1CCOCC1` [(S)-Timolol maleate], in the experiment on ReNCell VM [1] (library: Tocriscreen), the neuronal differentiation score is inactive: 0. In addition, the “dopaminergic neuron differentiation score” value in the experiment with ReNCell VM [2] (library: Tocriscreen) was inactive: 0.

`Cn1cc(/C=C2\C(=O)Nc3cccnc32)c2ccccc21`: in the experiment on ReNCell VM [1] (library: Tocriscreen), the neuronal differentiation score is inactive: 0. For the same compound, the “dopaminergic neuron differentiation score” value in the experiment on ReNCell VM [2] (library: Tocriscreen) is inactive: 0.

Take `COc1cc(OC)c(C=C2C(=O)Nc3ccccc32)c(OC)c1`: in the experiment with ReNCell VM [1] (library: LOPAC), the neuronal differentiation score was inactive: 1. Further, the “dopaminergic neuron differentiation score” value in the experiment with ReNCell VM [2] (library: LOPAC) was inactive: 0.

`CCn1cc(C(=O)O)c(=O)c2ccc(C)nc21`: the neuronal differentiation score with ReNCell VM [1] (library: Spectrum) is inactive: 1. In addition, in the experiment on ReNCell VM [2] (library: Spectrum), the “dopaminergic neuron differentiation score” value is inactive: 0.

As for `Nc1nc(NC2CC2)c2ncn([C@H]3C=C[C@@H](CO)C3)c2n1`, the neuronal differentiation score in the experiment with ReNCell VM [1] (library: Spectrum) is inactive: 0. In the experiment on ReNCell VM [2] (library: Spectrum), the “dopaminergic neuron differentiation score” value is inactive: 0.

Regarding `N=C(N)S/C=C\C(=O)O` [ZAPA sulphate], the neuronal differentiation score in the experiment on ReNCell VM [1] (library: Tocriscreen) was inactive: 0. For the same compound, in the experiment on ReNCell VM [2] (library: Tocriscreen), the “dopaminergic neuron differentiation score” value was inactive: 0.

Take `Cc1cc(N)c2ccccc2[n+]1CCCCCCCCCC[n+]1c(C)cc(N)c2ccccc21`: in the experiment with ReNCell VM [1] (library: Spectrum), the neuronal differentiation score is inactive: 0. In addition, the “dopaminergic neuron differentiation score” value in the experiment with ReNCell VM [2] (library: Spectrum) was inactive: 0.

Turning to `O=C(N/N=C/c1ccc([N+](=O)[O-])o1)c1ccc(O)cc1` [Nifuroxazide], the neuronal differentiation score with ReNCell VM [1] (library: Prestwick) was inactive: 0. Moreover, in the experiment with ReNCell VM [2] (library: Prestwick), the “dopaminergic neuron differentiation score” value was inactive: 0.

On to `CC/C=C\C/C=C\C/C=C\C/C=C\C/C=C\C/C=C\CCC(=O)O`, for which the neuronal differentiation score in the experiment with ReNCell VM [1] (library: Spectrum) was inactive: 0. Further, in the experiment with ReNCell VM [2] (library: Spectrum), the “dopaminergic neuron differentiation score” value was inactive: 0.

As for `CC(C(=O)O)c1cccc(C(=O)c2ccccc2)c1` (configuration not stated), the neuronal differentiation score in the experiment with ReNCell VM [1] (library: Spectrum) is inactive: 0. Also, the “dopaminergic neuron differentiation score” value in the experiment on ReNCell VM [2] (library: Spectrum) was inactive: 0.

On to `Cc1nc(Nc2ncc(C(=O)Nc3c(C)cccc3Cl)s2)cc(N2CCN(CCO)CC2)n1`, for which, in the experiment on ReNCell VM [1] (library: Spectrum), the neuronal differentiation score is inactive: 0. For the same compound, the “dopaminergic neuron differentiation score” value in the experiment with ReNCell VM [2] (library: Spectrum) is inactive: 0.

With `O=C1Cc2cc(CCN3CCN(c4nsc5ccccc45)CC3)c(Cl)cc2N1` [Ziprasidone  Hydrochloride], in the experiment on ReNCell VM [1] (library: Prestwick), the neuronal differentiation score is inactive: 0. Also, the “dopaminergic neuron differentiation score” value in the experiment with ReNCell VM [2] (library: Prestwick) is active: 3.

With `O=C1OCCN1/N=C/c1ccc([N+](=O)[O-])o1`, in the experiment on ReNCell VM [1] (library: Spectrum), the neuronal differentiation score was inactive: 0. Moreover, the “dopaminergic neuron differentiation score” value with ReNCell VM [2] (library: Spectrum) was inactive: 0.

Regarding `CNC(=O)[C@H]1O[C@@H](n2cnc3c(N)ncnc32)[C@H](O)[C@@H]1O` [5'-N-Methyl carboxamidoadenosine], the neuronal differentiation score in the experiment with ReNCell VM [1] (library: LOPAC) is inactive: -2. In addition, the “dopaminergic neuron differentiation score” value in the experiment with ReNCell VM [2] (library: LOPAC) is inactive: 0.
